This note sets out measurements from paper PMC8018780, “Two peptides targeting endothelial receptors are internalized into murine brain endothelial cells” (PLoS ONE, 2021).

Chains of the proteins cited; added tags and fusions are not shown. Residues count along the entry.
UniProt P02786, residues 101-760: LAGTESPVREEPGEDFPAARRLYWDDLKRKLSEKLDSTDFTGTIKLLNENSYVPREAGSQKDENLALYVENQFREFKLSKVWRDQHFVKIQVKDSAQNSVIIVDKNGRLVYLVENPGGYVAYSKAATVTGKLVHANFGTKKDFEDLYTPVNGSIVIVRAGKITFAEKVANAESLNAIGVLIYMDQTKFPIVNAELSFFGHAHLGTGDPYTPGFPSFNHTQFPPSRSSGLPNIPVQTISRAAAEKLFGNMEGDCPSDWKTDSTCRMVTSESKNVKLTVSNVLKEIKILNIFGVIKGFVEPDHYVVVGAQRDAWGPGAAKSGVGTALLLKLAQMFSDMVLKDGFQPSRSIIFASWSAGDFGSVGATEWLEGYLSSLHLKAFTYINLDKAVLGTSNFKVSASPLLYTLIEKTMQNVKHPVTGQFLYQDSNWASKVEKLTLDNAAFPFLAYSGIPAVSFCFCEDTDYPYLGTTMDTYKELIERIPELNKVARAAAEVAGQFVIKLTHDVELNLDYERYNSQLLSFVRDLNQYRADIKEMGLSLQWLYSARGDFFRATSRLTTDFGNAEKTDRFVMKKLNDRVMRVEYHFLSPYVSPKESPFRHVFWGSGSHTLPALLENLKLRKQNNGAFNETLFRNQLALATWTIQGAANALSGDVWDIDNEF

These are yes or no findings as the source states them, for the method shown. Some binding calls cover weakened binding; strength is not graded here.

The assay addresses recombinant human transferrin receptor (TfR) protein (human) (UniProt P02786). Briefly: SPR; Biacore 3000, CM5 chip, receptors immobilised by EDC/NHS coupling (TfR 58 fmol/mm^2, LRP-1 0.025 fmol/mm^2); peptides injected at 0.25-4 uM, 5 uL/min, 25°C, 10 mM HEPES, 150 mM NaCl, 1.5 mM CaCl2, 1 mM EGTA, 0.005% Tween 20, pH 7.4; Langmuir 1:1 model, global fit; both purified. Background: Surface plasmon resonance follows binding to a sensor surface in real time, without labels.

B1: GYR (peptide 2) (peptide)
peptide: GYRPVHNIRGHWAPGK
modifications: C-terminal amide
On to B1, for which the binding result is on record as “binds”.

B2: MTfp (peptide 1), peptide derived from melanotransferrin (peptide)
peptide: FRCLVENRGDVPFVTRIR
modifications: C-terminal amide
On to B2, for which the binding result is “binds”.
